Data: US11845938
pKd: −log10 of the molar value. The exact form of at least one protein or probe is not confirmed. At least one result comes from cells or an extract, where the contact may be indirect.

Amino acid sequences for entries named in this document (tags omitted). Residues count along the entry.
UniProt P0DMV8, 2-641: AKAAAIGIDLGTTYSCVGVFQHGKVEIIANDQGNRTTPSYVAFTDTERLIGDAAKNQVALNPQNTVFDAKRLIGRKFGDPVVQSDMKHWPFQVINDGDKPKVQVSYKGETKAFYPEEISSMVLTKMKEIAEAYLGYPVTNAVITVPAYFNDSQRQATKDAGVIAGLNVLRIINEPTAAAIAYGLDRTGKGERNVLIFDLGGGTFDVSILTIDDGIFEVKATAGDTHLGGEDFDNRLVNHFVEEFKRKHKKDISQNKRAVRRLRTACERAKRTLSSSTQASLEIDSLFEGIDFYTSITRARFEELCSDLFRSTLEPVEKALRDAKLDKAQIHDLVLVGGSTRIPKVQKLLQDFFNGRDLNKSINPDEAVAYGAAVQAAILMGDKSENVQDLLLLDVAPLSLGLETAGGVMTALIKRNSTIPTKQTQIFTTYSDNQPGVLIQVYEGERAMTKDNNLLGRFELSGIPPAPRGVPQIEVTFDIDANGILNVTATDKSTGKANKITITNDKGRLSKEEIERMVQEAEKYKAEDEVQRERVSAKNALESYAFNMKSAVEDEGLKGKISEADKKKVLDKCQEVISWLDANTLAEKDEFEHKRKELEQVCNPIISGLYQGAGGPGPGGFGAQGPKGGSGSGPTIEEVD

Target: mHSP70 (cell surface HSP70 + assayed on PANC-1 cells) (UniProt P0DMV8)
Assay: flow cytometry
Conditions: apparent Kd on whole PANC-1 cells, 37 C, protein on the cell surface, protein details: native on PANC-1 cells (ATCC CRL-1469), label: Cy3, variant of P19

Row | Sequence | pKd (5FdUMP in place of 2'-F-U, 2'-F-C, target mHSP70 assigned from earlier work (WO2013/154735)) | pKd (dFdCMP (gemcitabine monophosphate) in place of 2'-F-C, 2'-F-U, target mHSP70 assigned from earlier work)
1 | GGGAGACAAGAAUAAACGCUCAAUGGCGAAUGCCCGCCUAAUAGGGCGUUAUGACUUGUUGAGUUCGACAGGAGGCUCACAACAGGC [P19-5FdUMP] | 8.16 | 
2 | GGGAGACAAGAAUAAACGCUCAAUGGCGAAUGCCCGCCUAAUAGGGCGUUAUGACUUGUUGAGUUCGACAGGAGGCUCACAACAGGC [P19-dFdCMP] |  | 8.11
